Values quoted from earlier work in US20210346613A1, “CONTROLLED […] DEVICE FOR TREATING C[…] METHODS THEREOF” (priority 2020, published 2021).
At least one compound was matched to its structure with a doubt left.

Tested on: COVID-19
Conditions: human, in vivo

CCC(CC)COC(=O)[C@H](C)N[P@](=O)(OC[C@H]1O[C@@](C#N)(c2ccc3c(N)ncnn23)[C@H](O)[C@@H]1O)Oc1ccccc1 [Remdesivir]
mortality rate: reduction in mortality rate | recovery duration: reduction in recovery duration
